Test results reported in patent US20200095286A1.
These are yes or no findings as the source states them, for the method shown. Some binding calls cover weakened binding; strength is not graded here.

Amino acid sequences for entries named in this document (tags omitted).
UniProt P0A988: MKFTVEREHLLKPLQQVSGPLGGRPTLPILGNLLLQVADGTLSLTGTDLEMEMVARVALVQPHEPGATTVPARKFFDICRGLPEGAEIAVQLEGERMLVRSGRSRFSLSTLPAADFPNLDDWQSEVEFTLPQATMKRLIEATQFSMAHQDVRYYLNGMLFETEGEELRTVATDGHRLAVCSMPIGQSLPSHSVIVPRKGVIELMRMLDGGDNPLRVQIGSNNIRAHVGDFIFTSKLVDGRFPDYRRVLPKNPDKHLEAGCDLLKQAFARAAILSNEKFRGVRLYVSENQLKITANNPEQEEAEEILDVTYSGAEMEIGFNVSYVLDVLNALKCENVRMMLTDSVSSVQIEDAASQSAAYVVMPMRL

target: β-clamp protein from E. coli (E. coli) (UniProt P0A988); assay: microscale thermophoresis (MST)

binding	Binder
binds	MDRWLVPWKKKRKIRRRRRRRRRRR [… (SEQ ID NO: 1212)]
binds	MDRWLSKWKKKRKIRRRRRRRRRRR [… (SEQ ID NO: 1211)]
binds	MDRWAVKWKKKRKIRRRRRRRRRRR [… (SEQ ID NO: 1204)]
binds	MDRFLSKWKKKRKIRRRRRRRRRRR [… (SEQ ID NO: 1210)]
binds	MDRFSLKWKKKRKIRRRRRRRRRRR [… (SEQ ID NO: 1209)]
binds	MDRWSVKWKKKRKIRRRRRRRRRRR [… (SEQ ID NO: 1203)]
binds	MDRWLTKWKKKRKIRRRRRRRRRRR [… (SEQ ID NO: 1208)]
